# In PubChem BioAssay AID493014 (National Center for Advancing Translational Sciences (NCATS), 2011):
# Some of the results follow. The main result of the screen is listed elsewhere. These columns were measured beside it and carry no call. Compounds called inactive in the main read-out are mostly missing here. The note in brackets gives the kind of curve behind each potency; many fits are weak.
# Assay: qHTS Assay to Find Inhibitors of Chronic Active B-Cell Receptor Signaling
# Settings: ABC-DLBCL IkBa-CBG/CBR reporter, luminescence ratio (green luciferase fused to IkBa over red control in TMD8 lymphoma cells), 4 h
# Summary of the method: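 Concentration-response series (up to 46 uM) were applied to TMD8 dual-reporter cells for 4 h at 37C with doxycycline. Green/red ratio, after filter-overlap correction, defined %Activity; red signal alone was normalised to basal cells and zero luminescence.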
# [1] = measured here: CBR red luminescence, cell number
# [2] = measured here: IkBa-CBG green luminescence
SMILES,AC50 [1],AC50 [2]
Cn1ccc(C(=O)OCC(=O)c2ccccc2)n1,"2 µM [rising, partial curve, poor fit]",
COc1cccc(C(=O)Nc2ncc3c(n2)CC(c2ccc(OC)cc2OC)CC3=O)c1 (stereo not given),"10 µM [falling, partial curve]",
COc1ccc(CCNC(=O)COC(=O)c2ccc(Br)o2)cc1OC,"10.3 µM [rising, partial curve, poor fit]",
O=C1C=C(Nc2ccc(O)cc2)C(=O)c2ccccc21,"10 µM [falling, partial curve, poor fit]",
COc1ccc(CCNC(=O)c2nn(C)cc2Cl)cc1,"23.1 µM [falling, partial curve, poor fit]",
CCCC[C@@]1(C2CCCC2)Cc2cc(OCC(=O)O)c(Cl)c(Cl)c2C1=O,"29.1 µM [falling, single point]",
CC(C)(CNC(=O)/C=C/c1ccc(F)cc1)CNC(=O)/C=C/c1ccc(F)cc1,"3.26 µM [falling, partial curve]",
COc1ccc(OC)c2sc(N(CCCN(C)C)C(=O)CCS(=O)(=O)c3ccccc3)nc12,"13 µM [falling, partial curve]","14.6 µM [rising, partial curve, poor fit]"
CCN(CC)S(=O)(=O)c1ccc(NC2CCCc3ccccc32)nc1 (stereo not given),"32.6 µM [falling, single point]",
CC1(C)CCCN(C(=O)c2ccc3c(c2NCCO)C(=O)c2ccccc2C3=O)C1,"6.51 µM [falling, partial curve]",
O=C(NCCN1CCCCC1)c1cccc2c1C(=O)c1ccc(N3CCCC3)cc1S2(=O)=O,"32.6 µM [rising, partial curve, poor fit]",
O=C(c1ccco1)N1CCN(c2nc3c(F)cc(F)cc3s2)CC1,"35.5 µM [falling, single point]",
COc1cc(SC)ccc1C(=O)Nc1ccc2c(c1)OCCO2,"35.5 µM [falling, single point]",
O=C1c2cccc3c(N4CCOCC4)c([N+](=O)[O-])cc(c23)C(=O)N1c1cccc2ccccc12,"29.1 µM [rising, partial curve, poor fit]",
c1ccc(-n2ncc3c(NCc4ccccn4)ncnc32)cc1,"6.51 µM [rising, single point]",
COc1cccc(-n2nnnc2SCC(=O)Nc2cccc(NC(C)=O)c2)c1,"12.6 µM [falling, partial curve, poor fit]",
COc1ccc(CCn2nnnc2CN2CCN(C(=O)c3ccco3)CC2)cc1OC,"3.98 µM [rising, partial curve, poor fit]","3.55 µM [falling, single point]"
CC1CCN(CC(=O)Nc2cc(C(F)(F)F)ccc2Cl)CC1,"29.1 µM [rising, single point]",
COc1ccc(C(CC(=O)N2CCN(c3ccccc3)CC2)c2c(OC)cc(OC)c3ccc(=O)oc23)cc1 (stereo not given),"6.31 µM [rising, single point]",
O=C1C2C3c4ccccc4C(c4ccccc43)[C@@H]2C(=O)N1c1nc(-c2ccccc2)cs1 (stereo not given in full),"32.6 µM [rising, partial curve, poor fit]",

# Exported with tabs: part of the list above.
SMILES	AC50 [1]	AC50 [2]
COc1ccc(CCn2nnnc2CN2CCN(C(=O)c3ccco3)CC2)cc1OC	3.98 µM [rising, partial curve, poor fit]	3.55 µM [falling, single point]
CC1CCN(CC(=O)Nc2cc(C(F)(F)F)ccc2Cl)CC1	29.1 µM [rising, single point]	
COc1ccc(C(CC(=O)N2CCN(c3ccccc3)CC2)c2c(OC)cc(OC)c3ccc(=O)oc23)cc1 (stereo not given)	6.31 µM [rising, single point]	
O=C1C2C3c4ccccc4C(c4ccccc43)[C@@H]2C(=O)N1c1nc(-c2ccccc2)cs1 (stereo not given in full)	32.6 µM [rising, partial curve, poor fit]	

# Remaining list, next part

SMILES,AC50 [1],AC50 [2]
COc1ccccc1NC(=O)Nc1nc(CC(=O)N2CCN(c3ccccc3F)CC2)cs1,"29.1 µM [falling, single point]",
CCOC(=O)c1c(NC(=O)/C=C/C(=O)O)sc(C)c1-c1ccc(C(C)(C)C)cc1,"31.6 µM [falling, single point]",
CCc1n[n+](CC(=O)c2ccccc2)c(N)s1,"7.94 µM [falling, partial curve, poor fit]",
COc1ccccc1N1C(=O)c2ccccc2NC1c1ccc(O)cc1 (stereo not given),"11.2 µM [falling, partial curve, poor fit]",
COC(=O)c1cccc(NC(=O)NC(=O)c2ccc(Cl)cc2)c1,"0.1 µM [falling, full curve, poor fit]",
Cc1ccccc1OC(=O)C1C(c2ccccc2)C(C(=O)O)C1c1ccccc1 (stereo not given),"14.6 µM [rising, partial curve]",
NNC(=O)CN1C(c2ccc(Cl)cc2)=Nc2ccc(Br)cc2C1c1ccccc1 (stereo not given),"35.5 µM [falling, single point]",
CC(C)c1ccc(NC(=O)Nc2cnccn2)cc1,"0.355 µM [rising, full curve, poor fit]",
COc1ccccc1CN(Cc1cc2cc(C)ccc2[nH]c1=O)Cc1nnnn1Cc1ccco1,"17.8 µM [falling, single point]",
Cc1ccc(C(=O)NC(=S)Nc2cccnc2Cl)cc1,"15.8 µM [falling, partial curve]",
COCCC(=O)N1CCCC(C(=O)c2ccc3c4c(cccc24)CC3)C1 (stereo not given),"35.5 µM [falling, single point]",
CC(=O)c1nnn(-c2c(F)cccc2F)c1C,"0.501 µM [rising, full curve, poor fit]",
Cc1c(C(=O)N2CCCC(C(F)(F)F)C2)oc2ccccc12 (stereo not given),"1.03 µM [rising, full curve, poor fit]",
COc1cccc(-c2cc(C(=O)NCc3cccs3)no2)c1,"22.4 µM [falling, single point]",
COc1ccccc1CCNC(=O)C(=O)NCC(c1ccco1)S(=O)(=O)c1ccc(F)cc1 (stereo not given),"1.78 µM [rising, partial curve, poor fit]",
Cc1nc2ccc(C(=O)O)cc2c2c1CC(C)S2 (stereo not given),"1.64 µM [rising, full curve]","1.16 µM [rising, partial curve, poor fit]"
Cc1ccsc1/C=N/NC(=O)c1ccc2nc[nH]c2c1,"18.4 µM [falling, partial curve]",
COc1ccc(OC)c(N2CC(O)=C(c3nc4ccccc4s3)C2=N)c1,"12.6 µM [falling, partial curve, poor fit]","35.5 µM [rising, partial curve, poor fit]"
COc1ccc(C(=O)Nn2c(SCc3ccc([N+](=O)[O-])cc3)nc3ccccc3c2=O)cc1,"12.6 µM [falling, partial curve]",
CCOc1ccc2[nH]c3c(N4CCc5ccccc5C4)ncnc3c2c1,"14.1 µM [falling, partial curve]","7.94 µM [rising, partial curve, poor fit]"

SMILES,AC50 [1],AC50 [2]
O=C(CCCSc1ccccc1)Nc1ccc(Cl)c(S(=O)(=O)N2CCOCC2)c1,"32.6 µM [falling, single point]",
O=C1NC(=O)C(CC(=O)N(Cc2cccs2)C2(C(=O)NC3CCCC3)CCCCC2)N1 (stereo not given),"1.64 µM [falling, partial curve]",
O=C(/C=C/c1ccc(Cl)cc1Cl)NC(=S)Nc1ccccn1,"10 µM [falling, partial curve, poor fit]",
COc1ccc(Nc2nc(S(=O)(=O)c3ccc(C)cc3)c(Cl)s2)cc1,"5.17 µM [falling, full curve, poor fit]",
C(=N/Nc1cc(N2CCOCC2)nc(N2CCOCC2)n1)/c1ccccc1,"18.4 µM [falling, single point]",
CCn1c(CN2CCN(C(c3ccccc3)c3ccccc3)CC2)nc2c1c(=O)n(C)c(=O)n2C,"11.2 µM [falling, partial curve]",
COc1ccc(-c2ccc(SCC(=O)Nc3cc(C)on3)nn2)cc1OC,"23.1 µM [falling, single point]",
CCOc1ccc(-c2cc(CCCC(=O)NCCC(C)C)no2)cc1,"6.31 µM [falling, partial curve, poor fit]",
N#CC1=C(N)OC2=C(C(=O)CC(c3ccccc3)C2)C1c1cccnc1 (stereo not given),"32.6 µM [falling, single point]",
Cc1nnc(NC(=O)c2cc(-c3ccco3)nc3ccccc23)s1,"23.1 µM [falling, partial curve, poor fit]",
N/C(=N\OC(=O)c1ccc(Cl)cc1Cl)c1cccnc1,"0.708 µM [rising, full curve, poor fit]",
N#CCCN1CCN(S(=O)(=O)c2ccc3c(c2)OCCCO3)CC1,"32.6 µM [rising, single point]",
Cc1cccc(C(=O)Nc2nccs2)c1[N+](=O)[O-],"18.4 µM [falling, single point]",
COc1ccc(C(=O)N/C(=C\c2cccc3ccccc23)C(=O)NCCc2c[nH]c3ccccc23)cc1OC,"2.82 µM [falling, partial curve, poor fit]",
Cn1cc(Br)c(C(=O)Nc2sc3c(c2C#N)CCC3)n1,"3.16 µM [rising, full curve, poor fit]",
O=C(OCc1ccccc1F)c1cc2ccccc2cc1O,"15.8 µM [rising, partial curve, poor fit]",
CN(Cc1ccccc1)c1nc(N)c([N+](=O)[O-])c(NCc2ccccc2)n1,"3.66 µM [rising, full curve, poor fit]",
COc1ccc(N/C(=C(/C(Cl)=C(Cl)Cl)[N+](=O)[O-])n2nnc3ccccc32)cc1,"0.00461 µM [falling, full curve, poor fit]",
COc1ccc(C2=NS(=O)(=O)N(C)C(C(=O)N3CCC(C)CC3)=C2)cc1,"0.501 µM [rising, full curve, poor fit]",
CS(=O)(=O)NCCSCc1c(Cl)cccc1Cl,"7.31 µM [rising, partial curve, poor fit]",
